According to US20120052075A1:
No constants are given. Whether binding was seen depends on the method and setting. For part of these data: Binding seen in cells or lysates may run through a third protein. Some results given as binding are weak or reduced against the parent protein; the word gives no strength.

Sequences of proteins named here, by UniProt entry; tags and fusion partners are left off. A change or cut given only in a name is not applied to a line headed by its entry.
UniProt Q96PQ0: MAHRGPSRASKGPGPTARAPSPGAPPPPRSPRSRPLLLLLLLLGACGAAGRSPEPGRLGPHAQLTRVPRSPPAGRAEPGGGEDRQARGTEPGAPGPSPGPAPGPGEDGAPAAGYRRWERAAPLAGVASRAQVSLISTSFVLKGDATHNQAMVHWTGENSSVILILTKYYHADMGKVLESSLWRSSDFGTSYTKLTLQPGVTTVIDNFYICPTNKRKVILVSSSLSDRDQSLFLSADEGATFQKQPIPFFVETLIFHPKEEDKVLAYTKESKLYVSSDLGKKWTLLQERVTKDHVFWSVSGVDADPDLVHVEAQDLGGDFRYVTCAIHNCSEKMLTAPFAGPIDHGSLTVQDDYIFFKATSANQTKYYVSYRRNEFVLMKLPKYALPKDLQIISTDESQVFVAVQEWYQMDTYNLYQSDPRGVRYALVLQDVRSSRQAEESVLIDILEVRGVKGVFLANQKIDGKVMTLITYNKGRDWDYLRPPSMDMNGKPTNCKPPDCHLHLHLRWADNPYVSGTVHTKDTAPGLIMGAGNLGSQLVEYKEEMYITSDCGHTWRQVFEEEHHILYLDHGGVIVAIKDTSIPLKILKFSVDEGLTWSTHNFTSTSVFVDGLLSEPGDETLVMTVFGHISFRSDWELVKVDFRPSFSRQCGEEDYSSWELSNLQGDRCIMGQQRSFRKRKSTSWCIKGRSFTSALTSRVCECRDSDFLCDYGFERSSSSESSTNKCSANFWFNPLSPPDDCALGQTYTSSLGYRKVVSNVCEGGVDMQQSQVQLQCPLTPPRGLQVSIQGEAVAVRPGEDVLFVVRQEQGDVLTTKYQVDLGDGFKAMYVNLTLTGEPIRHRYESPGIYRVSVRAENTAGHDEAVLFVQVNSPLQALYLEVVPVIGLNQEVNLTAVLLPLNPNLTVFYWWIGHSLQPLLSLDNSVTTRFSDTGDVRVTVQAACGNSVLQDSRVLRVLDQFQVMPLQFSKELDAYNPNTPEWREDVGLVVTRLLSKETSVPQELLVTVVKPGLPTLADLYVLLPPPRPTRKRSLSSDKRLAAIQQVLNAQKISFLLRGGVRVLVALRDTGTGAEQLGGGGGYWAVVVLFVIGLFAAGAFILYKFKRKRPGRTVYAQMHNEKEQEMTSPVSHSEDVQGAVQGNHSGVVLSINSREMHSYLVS
UniProt Q99523: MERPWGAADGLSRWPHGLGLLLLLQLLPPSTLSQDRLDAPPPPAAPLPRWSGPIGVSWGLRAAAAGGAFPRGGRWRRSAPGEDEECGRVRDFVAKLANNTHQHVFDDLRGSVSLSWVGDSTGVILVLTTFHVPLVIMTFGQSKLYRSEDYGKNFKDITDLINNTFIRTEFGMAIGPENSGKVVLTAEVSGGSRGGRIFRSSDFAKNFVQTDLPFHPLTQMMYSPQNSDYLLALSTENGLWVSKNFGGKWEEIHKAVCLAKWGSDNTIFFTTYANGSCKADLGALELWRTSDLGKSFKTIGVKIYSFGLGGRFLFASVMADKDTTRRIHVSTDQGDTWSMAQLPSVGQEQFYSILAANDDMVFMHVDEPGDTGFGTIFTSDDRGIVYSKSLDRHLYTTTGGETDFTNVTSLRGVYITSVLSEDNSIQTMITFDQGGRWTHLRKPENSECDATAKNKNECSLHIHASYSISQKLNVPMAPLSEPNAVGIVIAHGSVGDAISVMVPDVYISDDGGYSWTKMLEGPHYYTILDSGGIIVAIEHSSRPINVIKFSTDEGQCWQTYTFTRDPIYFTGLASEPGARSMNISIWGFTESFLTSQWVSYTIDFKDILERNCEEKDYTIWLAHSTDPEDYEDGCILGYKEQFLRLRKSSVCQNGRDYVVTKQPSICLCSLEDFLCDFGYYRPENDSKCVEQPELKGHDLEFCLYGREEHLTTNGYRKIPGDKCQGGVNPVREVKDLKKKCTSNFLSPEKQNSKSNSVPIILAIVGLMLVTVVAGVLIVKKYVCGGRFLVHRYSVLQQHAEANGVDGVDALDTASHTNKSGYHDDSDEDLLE
UniProt P08138: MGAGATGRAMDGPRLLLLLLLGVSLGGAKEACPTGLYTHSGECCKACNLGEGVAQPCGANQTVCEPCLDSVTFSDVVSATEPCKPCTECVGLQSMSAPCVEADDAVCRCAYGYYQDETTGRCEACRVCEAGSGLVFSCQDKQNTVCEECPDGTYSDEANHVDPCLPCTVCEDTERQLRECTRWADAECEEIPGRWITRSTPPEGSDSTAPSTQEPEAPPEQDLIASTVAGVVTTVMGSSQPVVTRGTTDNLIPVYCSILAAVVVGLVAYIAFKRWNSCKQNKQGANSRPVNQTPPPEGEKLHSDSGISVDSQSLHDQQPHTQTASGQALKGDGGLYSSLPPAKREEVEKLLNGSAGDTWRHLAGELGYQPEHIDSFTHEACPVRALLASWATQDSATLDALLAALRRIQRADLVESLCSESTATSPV
UniProt Q16620: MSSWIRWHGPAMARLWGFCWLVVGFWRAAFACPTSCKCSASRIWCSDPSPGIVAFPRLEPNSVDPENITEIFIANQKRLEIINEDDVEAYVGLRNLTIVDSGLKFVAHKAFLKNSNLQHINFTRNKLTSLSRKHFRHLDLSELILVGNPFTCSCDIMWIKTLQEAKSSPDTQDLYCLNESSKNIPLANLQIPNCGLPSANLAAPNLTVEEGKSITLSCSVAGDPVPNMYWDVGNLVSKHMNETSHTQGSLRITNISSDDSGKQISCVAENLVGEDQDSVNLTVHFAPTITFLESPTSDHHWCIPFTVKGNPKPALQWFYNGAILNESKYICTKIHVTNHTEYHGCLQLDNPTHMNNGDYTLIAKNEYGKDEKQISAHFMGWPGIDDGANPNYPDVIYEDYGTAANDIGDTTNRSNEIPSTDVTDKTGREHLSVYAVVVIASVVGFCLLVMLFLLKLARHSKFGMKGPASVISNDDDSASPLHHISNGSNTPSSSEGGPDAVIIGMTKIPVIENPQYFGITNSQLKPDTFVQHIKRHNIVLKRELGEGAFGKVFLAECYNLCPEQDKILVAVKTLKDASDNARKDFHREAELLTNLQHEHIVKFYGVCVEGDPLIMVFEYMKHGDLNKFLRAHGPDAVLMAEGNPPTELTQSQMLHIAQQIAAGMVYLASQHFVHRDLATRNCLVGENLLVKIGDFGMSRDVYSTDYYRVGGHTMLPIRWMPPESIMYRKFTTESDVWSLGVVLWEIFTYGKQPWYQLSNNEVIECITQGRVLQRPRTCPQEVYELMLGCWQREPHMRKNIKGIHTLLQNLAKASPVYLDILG

What was measured:
[1] = molecular target: SorCS2 expressed in stably transfected HEK293 cells (Homo sapiens in the sequence list; not stated for the assay) (UniProt Q96PQ0); test: co-immunoprecipitation from DSP-crosslinked, stably transfected HEK293 cells with anti-SorCS2 antibody on Gammabind beads, Western blot for p75
[2] = molecular target: SorCS2 expressed in stably transfected HEK293 cells (Homo sapiens in the sequence list; not stated for the assay) (UniProt Q96PQ0); test: co-immunoprecipitation with anti-SorCS2 antibody from DSP-crosslinked HEK293 cells, Western blot
[3] = molecular target: soluble Sortilin, immobilized on the Biacore chip (Homo sapiens in the sequence list; not stated for the assay) (UniProt Q99523); test: SPR (BIAcore), soluble Sortilin immobilized on the chip, TrkB-Fc chimera at 500, 100 and 50 nM in solution
[4] = molecular target: T1, soluble SorCS1, immobilized on the Biacore chip (Homo sapiens in the sequence list; not stated for the assay) (UniProt Q8WY21); test: SPR (BIAcore)
T1 sequence: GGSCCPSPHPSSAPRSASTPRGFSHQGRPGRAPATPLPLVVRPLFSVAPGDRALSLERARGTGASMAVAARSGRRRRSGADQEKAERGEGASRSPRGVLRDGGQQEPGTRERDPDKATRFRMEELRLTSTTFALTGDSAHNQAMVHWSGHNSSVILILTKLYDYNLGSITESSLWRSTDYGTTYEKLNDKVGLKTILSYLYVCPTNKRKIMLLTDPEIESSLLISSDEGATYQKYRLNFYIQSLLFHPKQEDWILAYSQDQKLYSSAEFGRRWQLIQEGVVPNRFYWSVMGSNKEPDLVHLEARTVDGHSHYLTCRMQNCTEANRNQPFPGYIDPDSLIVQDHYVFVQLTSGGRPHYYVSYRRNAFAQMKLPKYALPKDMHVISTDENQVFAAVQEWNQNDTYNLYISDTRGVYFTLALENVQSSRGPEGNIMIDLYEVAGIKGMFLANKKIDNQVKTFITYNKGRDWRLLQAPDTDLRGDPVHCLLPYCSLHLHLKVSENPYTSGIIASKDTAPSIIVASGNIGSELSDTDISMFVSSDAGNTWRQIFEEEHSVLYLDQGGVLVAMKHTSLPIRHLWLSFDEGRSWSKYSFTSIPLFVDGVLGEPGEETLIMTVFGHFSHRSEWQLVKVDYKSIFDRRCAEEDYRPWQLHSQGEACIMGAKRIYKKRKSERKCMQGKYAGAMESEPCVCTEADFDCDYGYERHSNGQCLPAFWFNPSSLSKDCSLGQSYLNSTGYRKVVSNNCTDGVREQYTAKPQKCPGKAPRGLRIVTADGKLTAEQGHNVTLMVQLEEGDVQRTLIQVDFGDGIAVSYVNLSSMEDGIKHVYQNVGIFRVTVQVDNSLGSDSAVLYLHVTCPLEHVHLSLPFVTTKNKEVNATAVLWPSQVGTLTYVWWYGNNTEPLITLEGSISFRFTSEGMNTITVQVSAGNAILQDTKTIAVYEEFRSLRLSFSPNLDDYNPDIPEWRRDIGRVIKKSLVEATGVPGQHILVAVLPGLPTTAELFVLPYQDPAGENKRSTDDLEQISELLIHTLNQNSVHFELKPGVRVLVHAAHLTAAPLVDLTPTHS

[5] = molecular target: soluble Sortilin, immobilized on the Biacore chip (Homo sapiens in the sequence list; not stated for the assay) (UniProt Q99523); test: SPR (BIAcore)
[6] = molecular target: soluble SorCS2 (extracellular domain of SorCS2), immobilized on the Biacore chip (Homo sapiens in the sequence list; not stated for the assay) (UniProt Q96PQ0); test: SPR (BIAcore)
[7] = molecular target: soluble SorCS2 (extracellular domain of SorCS2), immobilized on the Biacore chip (Homo sapiens in the sequence list; not stated for the assay) (UniProt Q96PQ0); test: SPR (Biacore), CM5 chip coated with SorCS2
[8] = molecular target: soluble SorCS2 (extracellular domain of SorCS2), immobilized on the Biacore chip (Homo sapiens in the sequence list; not stated for the assay) (UniProt Q96PQ0); test: SPR (BIAcore), soluble SorCS2 immobilized on a CM5 chip, TrkB-Fc chimera at 500, 100 and 50 nM in solution
[9] = molecular target: T1, soluble SorCS1, immobilized on the Biacore chip (Homo sapiens in the sequence list; not stated for the assay); test: SPR (BIAcore), soluble SorCS1 immobilized on the chip, TrkB-Fc chimera at 500, 100 and 50 nM in solution
[10] = molecular target: soluble SorCS2 (extracellular domain of SorCS2), immobilized on the Biacore chip (Homo sapiens in the sequence list; not stated for the assay) (UniProt Q96PQ0); test: SPR (BIAcore), soluble SorCS2 immobilized on a CM5 chip, p75 ECD at 1 uM in solution
[11] = molecular target: soluble SorCS2 (extracellular domain of SorCS2), immobilized on the Biacore chip (Homo sapiens in the sequence list; not stated for the assay) (UniProt Q96PQ0); test: co-immunoprecipitation and SPR, as in FIG. 6

binding [1]	binding [2]	binding [3]	binding [4]	binding [5]	binding [6]	binding [7]	binding [8]	binding [9]	binding [10]	binding [11]	Substance
binds	binds	–	–	–	–	–	–	–	–	–	p75^NTR expressed in stably transfected HEK293 cells (from UniProt P08138 29-427) (receptor)
–	–	binds	binds	binds	binds	binds	binds	binds	–	–	TrkB-Fc chimera (R&D Systems) (from UniProt Q16620 32-430) (Fc fusion)
–	–	–	–	–	–	binds	–	–	binds	binds	soluble full-length extracellular domain of p75^NTR (from UniProt P08138 29-250) (receptor)
